Test results: US20230174951A1, “PHENOL-RICH GRAPES” (THE STATE OF ISRAEL, MINISTRY OF AGRICULTURE & RURAL …, priority 2020, published 2023)

System: V. vinifera cv. Gamay Red cell culture
Assay: Phe feeding of control, AroG* and AroG* + FLS-22 lines, metabolite levels
Format: cell-based, Vitis vinifera
Conditions: 5 mM Phe feeding, 9 days, compared to non-fed control, mean ± SE, n = 3; for Metabolite level, AroG* + FLS line: line 22

COc1cc(-c2[o+]c3cc(O)cc(O)c3cc2O[C@@H]2O[C@H](CO)[C@@H](O)[C@H](O)[C@H]2O)ccc1O [Peonidin-3-glu, peonidin-3-glucoside]
Metabolite level, AroG* line: 1.68±0.12 fold change
Metabolite level, Control line: 1.3±0.11 fold change
Metabolite level, AroG* + FLS line: 2.31 ±0.17 fold change

COc1cc(-c2[o+]c3cc(O)cc(O)c3cc2O[C@@H]2O[C@H](COC(C)=O)[C@@H](O)[C@H](O)[C@H]2O)cc(OC)c1O [Malvidin-3-acet-glu, malvidin-3-acetyl-glucoside]
Metabolite level, AroG* line: 4.75±0.58 fold change
Metabolite level, Control line: 0.89±0.12 fold change
Metabolite level, AroG* + FLS line: 7.06±0.85 fold change

COc1cc(-c2[o+]c3cc(O)cc(O)c3cc2O[C@@H]2O[C@H](CO)[C@@H](O)[C@H](O)[C@H]2O)cc(OC)c1O [Malvidin-3-glu, malvidin-3-glucoside]
Metabolite level, AroG* line: 6.82±0.48 fold change
Metabolite level, Control line: 1.83±0.36 fold change
Metabolite level, AroG* + FLS line: 9.63±0.54 fold change

malvidin-3-coumaroyl-glucoside [Malvidin-3-coum-glu]
Metabolite level, AroG* line: 6.6±0.76 fold change
Metabolite level, Control line: 1.07±0.16 fold change
Metabolite level, AroG* + FLS line: 11.55±1.84 fold change

Oc1cc(O)c2c(c1)O[C@H](c1ccc(O)c(O)c1)[C@H](O)[C@H]2c1c(O)cc(O)c2c1O[C@H](c1ccc(O)c(O)c1)[C@@H](O)C2 [Procyanidin B 1, procyanidin B1]
Metabolite level, AroG* line: 0.97±0.04 fold change
Metabolite level, Control line: 1.28±0.14 fold change
Metabolite level, AroG* + FLS line: 1.4±0.31 fold change

N[C@@H](Cc1c[nH]c2ccccc12)C(=O)O [Trp, Tryptophan]
Metabolite level, AroG* line: 3.02±0.05 fold change
Metabolite level, Control line: 0.81±0.12 fold change
Metabolite level, AroG* + FLS line: 6.68±0.87 fold change

Oc1cc(O)c2c(c1)O[C@H](c1ccc(O)c(O)c1)[C@H](O)[C@H]2c1c(O)cc(O)c2c1O[C@H](c1ccc(O)c(O)c1)[C@H](O)C2 [Procyanidin B2, procyanidin B2]
Metabolite level, AroG* line: 1.37±0.24 fold change
Metabolite level, Control line: 0.9±0.07 fold change
Metabolite level, AroG* + FLS line: 2.05±0.44 fold change

O=c1c(O[C@@H]2O[C@H](CO)[C@@H](O)[C@H](O)[C@H]2O)c(-c2ccc(O)c(O)c2)oc2cc(O)cc(O)c12 [Quercetin-3-glu, quercetin-3-glucoside]
Metabolite level, AroG* line: 1.16±0.1 fold change
Metabolite level, Control line: 0.86±0.05 fold change
Metabolite level, AroG* + FLS line: 2.87±0.26 fold change
